Laboratory results published in US9517222B2, “Method for the treatment of senile dementia of the Alzheimer's type” (Phenomenome Discoveries Inc., priority 2007, dated 2016).
A unit is not stated for every read-out.

Assay: Serum ethanolamine phospholipid levels in human cohorts (dementia severity, post-mortem pathology, age) by flow-injection MS/MS

Compound: CCCCC/C=C\C/C=C\C/C=C\C/C=C\CCCC(=O)O [Metabolite M26, Free 20:4]
- Ratio of serum levels (AD, All to CN, Male): 0.978
- Ratio of serum levels (ADAS 5-19 to CN, Male): 1.023
- Ratio of serum levels (ADAS 20-39 to 5-19, Male): 0.946
- Ratio of serum levels (ADAS 20-39 to CN, Male): 0.968
- Ratio of serum levels (ADAS 40-70 to 5-19, Male): 0.887
- Ratio of serum levels (ADAS 40-70 to 20-39, Male): 0.937
- Ratio of serum levels (ADAS 40-70 to CN, Male): 0.907
- Serum level, Mean (Cognitive Normal, Female): 0.069
- Average serum level, Mean (Cognitive Normal, Male): 0.072
- Serum level, Mean (Post Mortem Ctl, Male): 0.073
- Serum level, Mean (Post Mortem SDAT Male): 0.050
- Ratio of serum levels (Post mortem SDAT vs Control, Male): 0.684
- Serum level, Mean (SDAT, ADAS 5-19, Female): 0.076
- Average serum level, Mean (SDAT, ADAS 5-19, Male): 0.074
- Serum level, Mean (SDAT, ADAS 20-39, Female): 0.072
- Average serum level, Mean (SDAT, ADAS 20-39, Male): 0.070
- Serum level, Mean (SDAT, ADAS 40-70, Female): 0.072
- Average serum level, Mean (SDAT, ADAS 40-70, Male): 0.065
- Serum level, Mean (SDAT_all, Female): 0.073
- Average serum level, Mean (SDAT_all, Male): 0.070
- Ratio, ADAS 5-19 to CN, Female (serum level ratio, females, ADAS 5-19 vs CN): 1.092
- Ratio, ADAS 20-39 to 5-19, Female (serum level ratio, females, ADAS 20-39 vs ADAS 5-19): 0.955
- Ratio, ADAS 20-39 to CN, Female (serum level ratio, females, ADAS 20-39 vs CN): 1.043
- Ratio, ADAS 40-70 to 5-19, Female (serum level ratio, females, ADAS 40-70 vs ADAS 5-19): 0.954
- Ratio, ADAS 40-70 to 20-39, Female (serum level ratio, females, ADAS 40-70 vs ADAS 20-39): 0.998
- Ratio, ADAS 40-70 to CN, Female (serum level ratio, females, ADAS 40-70 vs CN): 1.041
- Ratio, 50-59 vs. 40-49, Female (serum level ratio, females, age 50-59 vs 40-49): 1.003
- Ratio, 60-69 vs. 40-49, Female (serum level ratio, females, age 60-69 vs 40-49): 1.021
- Ratio, 70+ vs. 40-49, Female (serum level ratio, females, age 70+ vs 40-49): 1.159
- Ratio, AD, All to CN, Female (serum level ratio, females, all AD vs cognitively normal): 1.056
- Ratio, Autopsy AD vs. Control, Female (serum level ratio, females, autopsy AD vs control): 1.123
- Ratio, 50-59 vs. 40-49, Male (serum level ratio, males, age 50-59 vs 40-49): 1.175
- Ratio, 60-69 vs. 40-49, Male (serum level ratio, males, age 60-69 vs 40-49): 1.324
- Ratio, 70+ vs. 40-49, Male (serum level ratio, males, age 70+ vs 40-49): 1.389
- Mean serum level, Age Ctl, 30-39, Female (serum, females, age 30-39): 0.091
- Mean serum level, Age Ctl, 40-49, Female (serum, females, age 40-49): 0.093
- Mean serum level, Age Ctl, 50-59, Female (serum, females, age 50-59): 0.093
- Mean serum level, Age Ctl, 60-69, Female (serum, females, age 60-69): 0.094
- Mean serum level, Age Ctl, 70+, Female (serum, females, age 70+): 0.107
- Mean serum level, Post Mortem SDAT, Female (serum, females, post mortem SDAT): 0.061
- Mean serum level, Post Mortem Ctl, Female (serum, females, post mortem control): 0.054
- Mean serum level, Age Ctl, 30-39, Male (serum, males, age 30-39): 0.091
- Mean serum level, Age Ctl, 40-49, Male (serum, males, age 40-49): 0.082
- Mean serum level, Age Ctl, 50-59, Male (serum, males, age 50-59): 0.096
- Mean serum level, Age Ctl, 60-69, Male (serum, males, age 60-69): 0.109
- Mean serum level, Age Ctl, 70+, Male (serum, males, age 70+): 0.114
